The source of these data is paper doi:10.1101/363176.

Chains of the proteins cited; added tags and fusions are not shown.
UniProt Q9NRC8: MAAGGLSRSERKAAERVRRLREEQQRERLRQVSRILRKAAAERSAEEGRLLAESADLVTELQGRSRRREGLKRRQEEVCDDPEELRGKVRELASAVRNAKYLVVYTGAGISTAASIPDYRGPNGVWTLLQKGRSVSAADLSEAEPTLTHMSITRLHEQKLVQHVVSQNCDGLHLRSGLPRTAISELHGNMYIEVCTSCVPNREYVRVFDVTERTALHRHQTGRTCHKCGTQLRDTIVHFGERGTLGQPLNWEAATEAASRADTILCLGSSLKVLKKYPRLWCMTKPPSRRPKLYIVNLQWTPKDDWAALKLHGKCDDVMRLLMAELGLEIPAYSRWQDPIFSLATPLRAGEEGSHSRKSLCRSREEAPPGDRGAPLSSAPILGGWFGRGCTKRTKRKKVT

These are yes or no findings as the source states them, for the method shown. For some assays here: In cells and extracts the contact can be indirect. Some results given as binding are weak or reduced against the parent protein; the word gives no strength. Tags and fused reporters may be left off the sequences shown.

Test [1] addresses T1, FLAG-Cry1 (human) (UniProt Q16526).
T1 sequence: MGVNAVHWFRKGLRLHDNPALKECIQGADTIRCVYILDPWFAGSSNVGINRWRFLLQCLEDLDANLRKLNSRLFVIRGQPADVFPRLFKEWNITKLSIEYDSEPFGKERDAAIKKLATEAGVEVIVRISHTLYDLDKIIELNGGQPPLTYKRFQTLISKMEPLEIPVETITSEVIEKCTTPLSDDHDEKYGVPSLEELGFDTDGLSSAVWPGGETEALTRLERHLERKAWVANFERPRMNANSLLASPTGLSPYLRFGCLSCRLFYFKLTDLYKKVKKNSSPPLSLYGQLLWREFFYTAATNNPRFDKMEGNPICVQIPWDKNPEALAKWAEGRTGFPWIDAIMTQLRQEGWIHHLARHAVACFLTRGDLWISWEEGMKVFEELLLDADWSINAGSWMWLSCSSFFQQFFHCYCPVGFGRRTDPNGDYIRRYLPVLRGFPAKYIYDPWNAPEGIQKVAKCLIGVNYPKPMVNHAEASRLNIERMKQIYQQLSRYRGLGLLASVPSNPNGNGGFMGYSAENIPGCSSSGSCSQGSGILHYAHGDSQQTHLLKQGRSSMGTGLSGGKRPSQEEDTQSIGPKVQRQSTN
As to the kind of experiment: co-IP.

Test [2] deals with GST-Sirt7 (human) (UniProt Q9NRC8). In words: pull-down.

Consider HA-Sirt7 (from UniProt Q9NRC8 1-400), for which the binding result in test [1] is given as “binds”.

B1: His-Cry1 (protein, UniProt Q16526 1-586)
chain: T1 sequence
As for B1, the binding result in test [2] is reported as “binds”.
